Results taken from patent publication US20120095032A1, “METHODS FOR TREATING LEUKEMIA AND MYELODYSPLASTIC SYNDROME, AND METHODS FOR IDENTIFYING AGENTS FOR TREATING SAME” (Sanford-Burnham Medical Research Institute, priority 2007, published 2012).
The structures given here were assigned with low confidence; some may be wrong.

The chains behind the UniProt entries cited, without tags or fusion partners.
UniProt P35236, whole entry: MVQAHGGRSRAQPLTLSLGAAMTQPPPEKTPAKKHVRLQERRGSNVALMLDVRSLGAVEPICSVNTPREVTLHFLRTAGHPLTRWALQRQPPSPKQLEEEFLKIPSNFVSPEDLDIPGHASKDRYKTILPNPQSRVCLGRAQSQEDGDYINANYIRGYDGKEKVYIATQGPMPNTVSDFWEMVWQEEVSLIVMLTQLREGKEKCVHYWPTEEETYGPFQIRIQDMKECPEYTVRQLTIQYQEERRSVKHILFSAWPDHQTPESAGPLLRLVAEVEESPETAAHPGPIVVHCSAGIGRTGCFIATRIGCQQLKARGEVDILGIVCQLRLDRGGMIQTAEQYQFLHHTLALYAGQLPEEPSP

Experiments:
[1] = biological target: T1, HePTP (Homo sapiens, UniProt P35236); assay: HePTP HTS primary screen (colorimetric pNPP / Biomol Green); assay type: biochemical; conditions: 20 μM compound
[2] = biological target: T1, HePTP; assay: HePTP dose-response confirmation screening; assay type: biochemical; conditions: Hill coefficient of the dose-response curve

SMILES: O=C(CCSCCC(=O)NCc1ccco1)NCc1ccco1
- % Inhib. at 20 μM [1]: 100.6%
- n / nH (Hill coefficient) [2]: 1.32
